Toxoplasma: 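Assay of Toxoplasma gondii numbers, read through their beta-galactosidase reporter with a colour substrate. Tested at 10 µM. Higher reads as fewer parasites (inferred from which compounds were picked for retests). Size under these conditions: about 67,000 compounds, about 260 of them at 50% or above in at least one test.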
ClpP1P2: 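ClpP1P2, Mycobacterium tuberculosis (UniProt P9WPC5 and UniProt P9WPC3). Protease assay of ClpP1P2, read by the AMC dye that it sets free. Concentration: 50 µM. Higher reads as stronger inhibition, judged from the few compounds that gave an IC50. Most other retested compounds had strongly negative values. Size under these conditions: about 69,000 compounds, about 10 of them at 50% or above in at least one test.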

Protein sequences, listed by entry. Tags and fused reporters are not part of them.
UniProt P9WPC5, whole entry: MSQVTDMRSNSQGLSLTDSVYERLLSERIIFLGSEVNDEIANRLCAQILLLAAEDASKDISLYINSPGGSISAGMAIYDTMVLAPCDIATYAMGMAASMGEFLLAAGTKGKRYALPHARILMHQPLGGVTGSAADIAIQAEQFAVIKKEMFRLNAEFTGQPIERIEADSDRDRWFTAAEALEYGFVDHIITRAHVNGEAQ
UniProt P9WPC3, whole entry partner: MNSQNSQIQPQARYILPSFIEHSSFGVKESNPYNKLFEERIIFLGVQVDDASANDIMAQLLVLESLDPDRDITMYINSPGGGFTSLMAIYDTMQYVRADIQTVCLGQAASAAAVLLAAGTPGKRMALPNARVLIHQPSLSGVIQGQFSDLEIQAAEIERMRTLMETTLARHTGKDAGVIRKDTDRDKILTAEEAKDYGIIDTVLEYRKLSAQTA

The filed quantity is “Percent Effect” (%). The record does not define 0% and 100%; most values in the screen are far below 50% and negative numbers occur (in some assays of this library far below -100). Compounds were drawn at random from those tested, without regard to their results. A dash means the value is not listed here; it may have been measured.

compound,Toxoplasma,ClpP1P2
Cn1nc(COc2cccnc2)c2c1CCN(Cc1ccco1)C2,-,20.38%
CSCC(=O)N1C[C@@H](C)[C@](O)(C(C)C)C1,9.165%,-9.094%
O=C(NCC1CC1)C1CN(C(=O)c2ccncc2)CC12CCOCC2 (stereo not drawn),-8.98%,2.63%
COCC(=O)N1Cc2c(-c3cccc(C)c3)nc(N)nc2C1C (stereo not drawn),4.034%,16.06%
COCCOc1ccc(CNCC2CNc3cc(C)nn3C2)cn1 (stereo not drawn),-7.273%,-21.75%
CCC(C)NC(=O)c1cc(S(=O)(=O)N(C)C)c(C)s1 (stereo not drawn),-2.405%,-7.145%
CCCC1C=CCN1C(=O)c1cc(COc2ccccc2)[nH]n1 (stereo not drawn),-0.6952%,5.108%
COc1cc2c(cc1CN1CCc3sccc3C1C)OCCO2 (stereo not drawn),-13.73%,0.1228%
CCCn1[nH]cc/c1=N\C(=O)CN1CCc2cnc(CC)nc2C1,1.05%,-7.323%
CCN(Cc1noc(C2CCC2)n1)C(=O)c1cnc2ccccc2c1,31.9%,2.298%
CC(Oc1cc(Cl)cc(Cl)c1)C(=O)NCCOCC(N)=O (stereo not drawn),-2.195%,0.7371%
O=C(Cc1ccc2c(c1)CCO2)Nc1ccc(-n2cncn2)nc1,4.225%,3.553%
O=C(Cc1ccon1)N1CCc2cc(Br)sc2C1,-5.119%,-9.092%
COc1ccccc1Oc1ncccc1CNC(=O)C(O)C(F)(F)F (stereo not drawn),6.153%,-3.023%
[H][C@]12CN(C(=O)c3cnc(C)nc3)CC[C@@]1(O)CCN(C1CCCCC1)C2,-4.322%,-
[H][C@@]12CN(Cc3csc(C)n3)C[C@]1([H])OCCN2c1ncc(F)cn1,3.098%,-
COCCn1cncc1CN1CCC(C(C)=O)(c2ccccc2)CC1,-0.8039%,1.757%
CN(C)S(=O)(=O)c1ccc(CSCC(=O)NC(C)(C)C)o1,-2.113%,-5.59%
Cn1ccc(C(=O)NCCOc2ccc3c(c2)CCC3)cc1=O,-1.285%,2.859%
Cn1cccc1C(=O)N1CCc2ccc(=O)n(C)c2CC1,9.358%,4.278%
Cn1ccnc1SCCNC(=O)CC1CCc2ccccc21 (stereo not drawn),-4.704%,4.221%
O=C(NCCNc1ncccn1)N1CCCC(C(F)(F)F)C1 (stereo not drawn),-2.77%,-2.296%
CCOc1ccc(CN[C@@H]2COC[C@H]2c2ccc(F)cc2)cc1.O=C(O)CC(O)(CC(=O)O)C(=O)O,21.69%,-
CCc1nnc2n1CCN(C(=O)Cc1nc(-c3ccco3)oc1C)C2,13.67%,-11.73%
O=C(NCc1cccc(F)c1)N1CCC2(CC(=O)N(c3ccsc3)C2)C1 (stereo not drawn),20.55%,-13.32%
CCOCc1ccc(CNC(=O)N2CCC(C(N)=O)C2)cc1 (stereo not drawn),-11.17%,-21.08%
CCS(=O)(=O)N1CCC(Nc2c(Cl)cccc2C#N)CC1,7.045%,-9.549%
CNS(=O)(=O)c1ccc(C(=O)N2CCCC2c2cnn(C)c2)o1 (stereo not drawn),-0.8161%,-5.862%
O=C(NCc1ccc(F)cc1F)C(c1cccnc1)N1CCOCC1 (stereo not drawn),1.606%,-0.9822%
COc1cccc(-c2noc(C3CCN(CC4CCCCC4)C3)n2)c1 (stereo not drawn),-,8.393%
CSc1nsc(NC(=O)N2CCc3ccccc3C2)n1,4.391%,16.8%
CCn1ccnc1CN1CCC(N(C)Cc2ncc(C)o2)C1 (stereo not drawn),10.99%,8.36%
CN1CCCC1(CCCc1cccnc1)C(=O)NCc1nccn1C (stereo not drawn),7.963%,-16.82%
CCN1CCC(NN2CCN(C)CC2)CC1,2.709%,-3.118%
Cc1nc(CN2CCC3(CC2)NC(=O)CC3c2ccccc2)cs1 (stereo not drawn),-,0.1414%
Cn1ccc(C(=O)NC2CCC23CCN(Cc2ccc(F)cc2)CC3)c1 (stereo not drawn),-,2.936%
O=C(O)C(F)(F)F.[H][C@@]12CCN(C(=O)c3cccnc3OC)C[C@@]1([H])O[C@@H](c1nnc(C)[nH]1)C2,-16.3%,-
Cc1cc(S(=O)(=O)N2CC[C@@H](O)C2)c(Cl)cc1F,-7.183%,-5.22%
C/C(=C/c1ccccc1)CNCc1cccc(C(N)=O)c1,3.717%,3.182%
CN(Cc1ccc(F)cc1)C(=O)CN1CCOC(Cn2cncn2)C1 (stereo not drawn),-,13.87%
CC1CCCN1C1CCN(C(=O)c2cccc(F)c2)CC1 (stereo not drawn),-9.16%,3.716%
COCCn1ccc2cc(NC(=O)N(C)C(C)CSC)ccc21 (stereo not drawn),6.061%,-10.45%
Cc1noc(C)c1CN1CC[C@H](OCC2CC2)[C@@H](Cc2ccccc2)C1,14.37%,-5.396%
O=C(O)C(F)(F)F.O=C(O)C(F)(F)F.O=C(O)C(F)(F)F.[H][C@@]12CCN(Cc3nccs3)C[C@]1([H])[C@@H](CNc1ncccn1)OC2,6.698%,-
CCOCCS(=O)(=O)Cc1ccn(-c2cccc(F)c2)n1,-1.299%,-5.469%
CC(C)(NCC(=O)NCC1CC1)c1ccc2c(c1)OCCO2,13.59%,-6.115%
[H][C@]12CC[C@]([H])(CN(C3CCOCC3)C1)N(Cc1cnc(NCCC)nc1)C2,4.867%,-
CC(C)Cn1cnc(S(=O)(=O)NCCc2nnc3ccccn23)c1,-0.8207%,-2.255%
CCn1nc(C)c(CN2CCNCC2)c1C,0.202%,1.506%
COCC(=O)N1CCCC1c1cc(N2CCN(C(C)=O)CC2)cc(C)n1 (stereo not drawn),-9.739%,15.15%
O=C(c1ccccc1F)N1CCC2(CC1)CC(N1CCCC1)CO2 (stereo not drawn),-,0.9817%
NCc1cnn(-c2ccccc2C(=O)NCc2ccccc2Cl)c1,1.607%,-12.67%
CCOC(=O)N1CCC(NC(C)Cc2cc(C)n[nH]2)CC1 (stereo not drawn),-40.26%,-7.045%
O=C(NCC1CCCO1)c1cc(Sc2ncccn2)ccn1 (stereo not drawn),16.43%,0.7128%
O=C([C@H]1C[C@H]2OCC[C@H]2N(Cc2ccccn2)C1)N1CCCCO1,-,-9.701%
CN(Cc1cccc(C(F)(F)F)c1)Cc1nc(-c2cnccn2)no1,-4.323%,-3.118%
COc1ccccc1-c1nnc2n1NC(N)=C(C#N)S2,-3.479%,-6.544%
O=C(c1n[nH]c2c1CCC2)N1CCCC1c1nc(-c2ccccn2)no1 (stereo not drawn),2.53%,2.955%
CNC(=O)CN1CC[C@H]2CN(C(=O)c3ccccc3C)C[C@H]2C1,-,8.216%
CC1(C)CC(N(Cc2cccnc2)Cc2cccnc2)CC(C)(C)N1.O=C(O)CC(O)(CC(=O)O)C(=O)O,3.533%,-
Cc1ccc(-c2ncc(CNc3cnccc3CO)s2)o1,-7.695%,-13.59%
CN(C)Cc1cc(=O)n2c(n1)CN(C(=O)Cc1cccs1)CCC2,-,-6.088%
Cc1cc(C(=O)N2CCCC(c3nccn3Cc3ccncc3)C2)no1 (stereo not drawn),-8.84%,-1.126%
Fc1ccc(C2(c3noc(CCN4CCCCO4)n3)CCOC2)cc1 (stereo not drawn),-29.84%,-12.12%
CC(CCc1ccc(O)cc1)NC1CCN(S(C)(=O)=O)CC1 (stereo not drawn),1.429%,-8.739%
Cc1ccc(C(O)CNC(=O)NCc2c(C)cc(C)[nH]c2=O)cc1 (stereo not drawn),-4.588%,-1.866%
CCCC(=O)N(CCCN1CCOCC1)c1nc2c(Cl)cccc2s1,-,7.868%
Cc1nc(CN2CCCC(N(C)Cc3cnn(C)c3)C2)no1 (stereo not drawn),5.911%,6.996%
O=c1cc(CN2CCCC2)nc2n1CCCN(Cc1ccoc1)C2,-18.09%,19.14%
CC(C)Cc1cc(C(=O)NCC(c2ccc(F)cc2)N(C)C)n(C)n1 (stereo not drawn),-3.767%,1.057%
CC(Cc1ccco1)NC(=O)CCn1cccn1 (stereo not drawn),8.872%,4.827%
CO[C@H]1C(=O)N(C)C2(CCNCC2)[C@@H]1C(=O)Nc1ccccc1,-20.41%,2.414%
Cc1cc(C)nc(NC2CCC(=O)N(C)C2)n1 (stereo not drawn),2.835%,-7.253%
CN1CCC(n2nc(Cc3cccc(Cl)c3)nc2Cn2cnnn2)CC1,26.66%,-4.154%
CCOC(=O)N1CCN(C(=O)c2sc(-c3ccccc3)nc2C)CC1,-3.905%,9.57%
CNC(=O)CCc1cc(C2CCCN2C(=O)CO)nc(C)n1 (stereo not drawn),-4.528%,-40.08%
O=C1NC(c2ccccc2)=N[C@@]12CC[C@@H]1CN(Cc3ccncc3)C[C@@H]12,-,-8.484%
Cc1cc(C(=O)N2CC[C@H](N3CCOCC3)[C@H](CCCO)C2)c(C)n1C,6.085%,-4.075%

5 of the entries, repeated:

{"compound": "Cn1ccnc1SCCNC(=O)CC1CCc2ccccc21", "stereo": "stereo not drawn", "Toxoplasma": -4.704, "ClpP1P2": 4.221}
{"compound": "O=C(Cc1ccc2c(c1)CCO2)Nc1ccc(-n2cncn2)nc1", "Toxoplasma": 4.225, "ClpP1P2": 3.553}
{"compound": "CC(C)(NCC(=O)NCC1CC1)c1ccc2c(c1)OCCO2", "Toxoplasma": 13.59, "ClpP1P2": -6.115}
{"compound": "CCn1ccnc1CN1CCC(N(C)Cc2ncc(C)o2)C1", "stereo": "stereo not drawn", "Toxoplasma": 10.99, "ClpP1P2": 8.36}
{"compound": "CCS(=O)(=O)N1CCC(Nc2c(Cl)cccc2C#N)CC1", "Toxoplasma": 7.045, "ClpP1P2": -9.549}

From ChEMBL document CHEMBL3988442, “University of Dundee, Small-Polar-MMV Screening Library” (2021).